Among the data in article PMC12145813 are binding values, retold here.

By UniProt entry, the sequences of proteins in these tests, tags left out. Where a name states a change or a piece, a line headed by the entry shows the natural chain unless it says otherwise.
UniProt Q8K4Z2: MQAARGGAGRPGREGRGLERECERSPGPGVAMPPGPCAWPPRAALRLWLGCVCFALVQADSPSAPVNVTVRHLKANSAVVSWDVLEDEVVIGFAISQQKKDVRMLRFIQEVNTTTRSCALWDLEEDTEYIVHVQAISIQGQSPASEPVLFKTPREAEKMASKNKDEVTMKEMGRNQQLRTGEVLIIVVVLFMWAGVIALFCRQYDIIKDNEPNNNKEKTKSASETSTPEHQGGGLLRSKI
UniProt Q8R4B8: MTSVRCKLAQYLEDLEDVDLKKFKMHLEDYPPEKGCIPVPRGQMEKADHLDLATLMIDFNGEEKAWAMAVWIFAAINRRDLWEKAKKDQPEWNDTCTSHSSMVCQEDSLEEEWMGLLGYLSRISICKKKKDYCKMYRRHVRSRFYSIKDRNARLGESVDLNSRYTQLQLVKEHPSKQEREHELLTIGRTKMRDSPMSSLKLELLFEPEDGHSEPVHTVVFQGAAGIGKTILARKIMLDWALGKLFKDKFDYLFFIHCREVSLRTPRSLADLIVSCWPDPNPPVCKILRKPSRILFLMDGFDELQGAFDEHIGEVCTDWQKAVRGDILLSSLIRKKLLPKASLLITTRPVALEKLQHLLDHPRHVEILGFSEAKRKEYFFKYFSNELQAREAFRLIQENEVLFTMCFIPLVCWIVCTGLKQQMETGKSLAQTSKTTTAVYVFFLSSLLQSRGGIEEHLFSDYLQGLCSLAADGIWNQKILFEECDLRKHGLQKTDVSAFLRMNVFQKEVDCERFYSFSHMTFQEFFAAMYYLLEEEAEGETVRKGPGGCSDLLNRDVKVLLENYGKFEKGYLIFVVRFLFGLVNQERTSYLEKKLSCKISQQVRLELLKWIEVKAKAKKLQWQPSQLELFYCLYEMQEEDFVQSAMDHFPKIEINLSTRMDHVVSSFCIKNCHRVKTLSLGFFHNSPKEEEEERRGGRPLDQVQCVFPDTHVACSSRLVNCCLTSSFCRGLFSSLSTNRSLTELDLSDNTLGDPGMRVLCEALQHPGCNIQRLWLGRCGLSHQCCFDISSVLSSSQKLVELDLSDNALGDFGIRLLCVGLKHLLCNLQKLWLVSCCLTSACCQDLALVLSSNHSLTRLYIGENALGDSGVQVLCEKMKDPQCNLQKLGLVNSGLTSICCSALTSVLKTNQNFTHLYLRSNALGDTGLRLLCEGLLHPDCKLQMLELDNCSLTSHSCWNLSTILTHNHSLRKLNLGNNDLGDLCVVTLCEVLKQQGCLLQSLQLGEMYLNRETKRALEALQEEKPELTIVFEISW

Assay [1] addresses irisin (mouse (endogenous in BV2)) (UniProt Q8K4Z2). Kind of assay: co-IP; BV2 cell lysate in NP-40 buffer with protease inhibitors; 500 ug total protein with 2 ug anti-irisin antibody or IgG control overnight at 4 C, protein A/G magnetic beads 2 h; alternatively precipitated with anti-TXNIP or anti-NLRP antibodies; Western blot. For orientation: In western blotting, separated proteins are transferred to a membrane and probed.

For assay [2] the target is unchanged. The assay is described as above. The source holds these as a separate data set.

Like-named read-outs stand apart in the source and are kept apart here. These are yes or no findings as the source states them, for the method shown. Binding seen in cells or lysates may run through a third protein. Binding can be weak; no strength is given.

As to “nucleotide-binding oligomerization domain-like receptor protein 3 (NLRP3) (from UniProt Q8R4B8 1-1033)”, the binding entry in assay [1] is on record as “binds weakly”.

B1: thioredoxin-interacting protein (TXNIP) (protein, UniProt Q8BG60-1 1-397)
chain: MVMFKKIKSFEVVFNDPEKVYGSGEKVAGRVIVEVCEVTRVKAVRILACGVAKVLWMQGSQQCKQTLDYLRYEDTLLLEEQPTAGENEMVIMRPGNKYEYKFGFELPQGPLGTSFKGKYGCVDYWVKAFLDRPSQPTQEAKKNFEVMDLVDVNTPDLMAPVSAKKEKKVSCMFIPDGRVSVSARIDRKGFCEGDDISIHADFENTCSRIVVPKAAIVARHTYLANGQTKVFTQKLSSVRGNHIISGTCASWRGKSLRVQKIRPSILGCNILKVEYSLLIYVSVPGSKKVILDLPLVIGSRSGLSSRTSSMASRTSSEMSWIDLNIPDTPEAPPCYMDIIPEDHRLESPTTPLLDDVDDSQDSPIFMYAPEFQFMPPPTYTEVDPCVLNNNNNNNNVQ
Consider B1, for which, in assay [2], the binding entry is “binds”.
